Data source: PubChem BioAssay AID1224830 (NIAID, 2016)
Screen: 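Genes whose knock-down alters the TNF-alpha reporter response to LPS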 (primary screen). Cell system: human THP-1 monocytic leukaemia cells, TNF dual-luciferase reporter clone, PMA-differentiated to macrophage-like cells. Reagent: siRNA pool against human genes, 50 nM. Duration: LPS for 4 h, given about 3 days after siRNA transfection. Challenge: bacterial LPS (TLR4 ligand), 10 ng/ml. Measurement: 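Ratio of firefly to renilla light, scaled to the plate median and expressed as a robust z-score per replicate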. Scale: TNF reporter robust z-score: higher = stronger TNF reporter response to LPS. Active means: 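a well is active when its z-score exceeds 2.8 or falls below -1.5; control wells carry no call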.
Here is an unselected part of about 18,000 reagents. About 2,900 of them (16%) were called active. 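Calls are made per well; low scores hint the gene aids the LPS response, high scores that it dampens it.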 Repeated entries: four replicate wells of each siRNA pool.

| gene | TNF reporter robust z-score | outcome |
| --- | --- | --- |
| ZFYVE19 (GeneID 84936) | -1.25 | inactive |
| ZFYVE19 (GeneID 84936) | -0.78 | inactive |
| ZFYVE19 (GeneID 84936) | -1.39 | inactive |
| ZFYVE19 (GeneID 84936) | -1.23 | inactive |
| WSB1 (GeneID 26118) | -0.21 | inactive |
| WSB1 (GeneID 26118) | 0.24 | inactive |
| WSB1 (GeneID 26118) | -2.17 | active |
| WSB1 (GeneID 26118) | 0.54 | inactive |
| ZWILCH (GeneID 55055) | -0.35 | inactive |
| ZWILCH (GeneID 55055) | 0.22 | inactive |
| ZWILCH (GeneID 55055) | -0.17 | inactive |
| RUNX1 (GeneID 861) | -1.37 | inactive |
| RUNX1 (GeneID 861) | -1.29 | inactive |
| RUNX1 (GeneID 861) | -1.33 | inactive |
| RUNX1 (GeneID 861) | -1.25 | inactive |
| NPTN (GeneID 27020) | 0.58 | inactive |
| NPTN (GeneID 27020) | 0.39 | inactive |
| NPTN (GeneID 27020) | 0.16 | inactive |
| NPTN (GeneID 27020) | 1.01 | inactive |
| TLR4 (GeneID 7099) | -2.36 | active |
| TLR4 (GeneID 7099) | -2.31 | active |
| TLR4 (GeneID 7099) | -2.3 | active |
| TLR4 (GeneID 7099) | -2.38 | active |
| MIOX (GeneID 55586) | 0.87 | inactive |
| MIOX (GeneID 55586) | 2.33 | inactive |
| MIOX (GeneID 55586) | 0.3 | inactive |
| MIOX (GeneID 55586) | -0.15 | inactive |
| EXOSC7 (GeneID 23016) | 0.53 | inactive |
| EXOSC7 (GeneID 23016) | 1.15 | inactive |
| EXOSC7 (GeneID 23016) | 1.02 | inactive |
| EXOSC7 (GeneID 23016) | 0.98 | inactive |
| COLGALT2 (GeneID 23127) | 0.14 | inactive |
| COLGALT2 (GeneID 23127) | -0.12 | inactive |
| COLGALT2 (GeneID 23127) | 0.09 | inactive |
| COLGALT2 (GeneID 23127) | 0.73 | inactive |
| NPS (GeneID 594857) | 0.63 | inactive |
| NPS (GeneID 594857) | 0.5 | inactive |
| NPS (GeneID 594857) | -0.44 | inactive |
| NPS (GeneID 594857) | -0.41 | inactive |
| SLC35F1 (GeneID 222553) | 0.11 | inactive |
| SLC35F1 (GeneID 222553) | -0.16 | inactive |
| SLC35F1 (GeneID 222553) | 0.62 | inactive |
| SLC35F1 (GeneID 222553) | -1.05 | inactive |
| CSTB (GeneID 1476) | -0.48 | inactive |
| CSTB (GeneID 1476) | -0.89 | inactive |
| CSTB (GeneID 1476) | -0.16 | inactive |
| CSTB (GeneID 1476) | 0.54 | inactive |
| CCNF (GeneID 899) | -2.06 | active |
| CCNF (GeneID 899) | -0.22 | inactive |
| CCNF (GeneID 899) | 1.46 | inactive |
| CCNF (GeneID 899) | -0.53 | inactive |
| NDUFS4 (GeneID 4724) | -1.11 | inactive |
| NDUFS4 (GeneID 4724) | -0.94 | inactive |
| NDUFS4 (GeneID 4724) | -1.58 | active |
| NDUFS4 (GeneID 4724) | -1.64 | active |

Called active, of those listed so far:
| gene | TNF reporter robust z-score | outcome |
| --- | --- | --- |
| WSB1 (GeneID 26118) | -2.17 | active |
| TLR4 (GeneID 7099) | -2.36 | active |
| TLR4 (GeneID 7099) | -2.31 | active |
| TLR4 (GeneID 7099) | -2.3 | active |
| TLR4 (GeneID 7099) | -2.38 | active |
| CCNF (GeneID 899) | -2.06 | active |
| NDUFS4 (GeneID 4724) | -1.58 | active |
| NDUFS4 (GeneID 4724) | -1.64 | active |

Additional results:
| gene | TNF reporter robust z-score | outcome |
| --- | --- | --- |
| MRGPRE (GeneID 116534) | -0.33 | inactive |
| MRGPRE (GeneID 116534) | 0.29 | inactive |
| MRGPRE (GeneID 116534) | 0.54 | inactive |
| MRGPRE (GeneID 116534) | 1.22 | inactive |
| NTRK1 (GeneID 4914) | -1.49 | inactive |
| NTRK1 (GeneID 4914) | 0.23 | inactive |
| NTRK1 (GeneID 4914) | -1.08 | inactive |
| NTRK1 (GeneID 4914) | 0.44 | inactive |
| SEC13 (GeneID 6396) | 0.35 | inactive |
| SEC13 (GeneID 6396) | -0.9 | inactive |
| SEC13 (GeneID 6396) | -0.83 | inactive |
| SEC13 (GeneID 6396) | 0.27 | inactive |
| JPH1 (GeneID 56704) | -0.03 | inactive |
| JPH1 (GeneID 56704) | -0.62 | inactive |
| JPH1 (GeneID 56704) | 0.19 | inactive |
| TUBB1 (GeneID 81027) | 0.29 | inactive |
| TUBB1 (GeneID 81027) | 0.25 | inactive |
| TUBB1 (GeneID 81027) | 3.33 | active |
| TUBB1 (GeneID 81027) | -0.66 | inactive |
| HIKESHI (GeneID 51501) | 1.13 | inactive |
| HIKESHI (GeneID 51501) | -0.24 | inactive |
| HIKESHI (GeneID 51501) | 0.15 | inactive |
| HIKESHI (GeneID 51501) | 0.34 | inactive |
| SLC46A2 (GeneID 57864) | -0.57 | inactive |
| SLC46A2 (GeneID 57864) | 0.18 | inactive |
| SLC46A2 (GeneID 57864) | -0.46 | inactive |
| SLC46A2 (GeneID 57864) | 0.82 | inactive |
| KCNN3 (GeneID 3782) | -0.31 | inactive |
| KCNN3 (GeneID 3782) | -0.48 | inactive |
| KCNN3 (GeneID 3782) | 0.25 | inactive |
| UBE2L6 (GeneID 9246) | -0.55 | inactive |
| UBE2L6 (GeneID 9246) | -0.24 | inactive |
| UBE2L6 (GeneID 9246) | -0.88 | inactive |
| UBE2L6 (GeneID 9246) | -0.7 | inactive |
| SEC22C (GeneID 9117) | -0.66 | inactive |
| SEC22C (GeneID 9117) | -0.07 | inactive |
| SEC22C (GeneID 9117) | -0.02 | inactive |
| SEC22C (GeneID 9117) | -0.43 | inactive |
| PTPRR (GeneID 5801) | 0 | inactive |
| PTPRR (GeneID 5801) | -0.43 | inactive |
| PTPRR (GeneID 5801) | 0.99 | inactive |
| PTPRR (GeneID 5801) | 0.29 | inactive |
| GLYATL1 (GeneID 92292) | 0.08 | inactive |
| GLYATL1 (GeneID 92292) | 0.15 | inactive |
| GLYATL1 (GeneID 92292) | -0.79 | inactive |
| GLYATL1 (GeneID 92292) | -0.42 | inactive |
| INTS8 (GeneID 55656) | 2.33 | inactive |
| INTS8 (GeneID 55656) | 0.83 | inactive |
| INTS8 (GeneID 55656) | 1.36 | inactive |
| INTS8 (GeneID 55656) | 3.54 | active |
| CMC1 (GeneID 152100) | -0.48 | inactive |
| CMC1 (GeneID 152100) | -0.27 | inactive |
| CMC1 (GeneID 152100) | -1.42 | inactive |
| CMC1 (GeneID 152100) | -0.53 | inactive |
| SIGIRR (GeneID 59307) | -0.24 | inactive |
| SIGIRR (GeneID 59307) | 1.29 | inactive |
| SIGIRR (GeneID 59307) | 0.24 | inactive |
| SIGIRR (GeneID 59307) | 1.71 | inactive |
